Test results reported in paper doi:10.1101/2023.10.13.562244.

Amino acid sequences for entries named in this document (tags omitted).
UniProt Q3TKT4: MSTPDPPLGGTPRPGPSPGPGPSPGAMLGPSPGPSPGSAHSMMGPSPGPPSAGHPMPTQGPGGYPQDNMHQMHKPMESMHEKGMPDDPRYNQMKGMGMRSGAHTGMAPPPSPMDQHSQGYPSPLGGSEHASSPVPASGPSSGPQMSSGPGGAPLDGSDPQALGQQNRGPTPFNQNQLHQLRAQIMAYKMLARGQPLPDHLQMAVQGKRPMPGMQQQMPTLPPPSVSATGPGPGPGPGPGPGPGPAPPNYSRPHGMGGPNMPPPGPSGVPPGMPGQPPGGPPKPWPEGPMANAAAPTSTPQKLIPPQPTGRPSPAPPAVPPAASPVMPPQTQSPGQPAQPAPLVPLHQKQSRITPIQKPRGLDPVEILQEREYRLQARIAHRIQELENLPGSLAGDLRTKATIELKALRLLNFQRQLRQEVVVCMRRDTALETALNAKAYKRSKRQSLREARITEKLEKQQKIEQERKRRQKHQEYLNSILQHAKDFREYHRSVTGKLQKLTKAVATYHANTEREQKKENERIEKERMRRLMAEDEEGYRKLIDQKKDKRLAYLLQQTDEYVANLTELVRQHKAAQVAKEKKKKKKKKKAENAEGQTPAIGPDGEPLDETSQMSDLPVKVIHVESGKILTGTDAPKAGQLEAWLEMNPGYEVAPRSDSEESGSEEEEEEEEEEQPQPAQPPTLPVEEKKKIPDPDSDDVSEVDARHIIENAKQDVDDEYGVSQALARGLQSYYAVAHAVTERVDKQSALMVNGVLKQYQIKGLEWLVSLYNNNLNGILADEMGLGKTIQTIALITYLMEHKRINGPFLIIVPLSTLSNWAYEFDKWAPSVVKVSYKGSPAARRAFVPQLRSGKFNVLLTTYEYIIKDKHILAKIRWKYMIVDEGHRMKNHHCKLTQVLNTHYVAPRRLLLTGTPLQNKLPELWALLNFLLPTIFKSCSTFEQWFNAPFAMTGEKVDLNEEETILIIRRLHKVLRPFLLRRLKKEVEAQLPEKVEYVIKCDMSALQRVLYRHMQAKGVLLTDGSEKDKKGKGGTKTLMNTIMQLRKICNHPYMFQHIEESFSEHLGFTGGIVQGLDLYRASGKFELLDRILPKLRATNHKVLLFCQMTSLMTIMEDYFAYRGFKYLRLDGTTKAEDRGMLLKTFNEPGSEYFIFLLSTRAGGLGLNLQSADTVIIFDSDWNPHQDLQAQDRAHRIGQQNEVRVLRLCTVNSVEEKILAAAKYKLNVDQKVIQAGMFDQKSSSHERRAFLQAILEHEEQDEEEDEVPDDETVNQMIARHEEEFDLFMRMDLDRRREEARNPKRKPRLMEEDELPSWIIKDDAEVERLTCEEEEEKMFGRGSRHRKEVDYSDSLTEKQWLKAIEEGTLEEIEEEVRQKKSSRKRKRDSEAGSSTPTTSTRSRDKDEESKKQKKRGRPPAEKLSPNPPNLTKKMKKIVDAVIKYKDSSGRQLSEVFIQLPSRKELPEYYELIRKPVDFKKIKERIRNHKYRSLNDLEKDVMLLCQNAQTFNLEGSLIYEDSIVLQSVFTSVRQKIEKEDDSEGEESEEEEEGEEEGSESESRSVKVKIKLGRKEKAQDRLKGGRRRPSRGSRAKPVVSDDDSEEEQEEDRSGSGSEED
UniProt Q9QX66: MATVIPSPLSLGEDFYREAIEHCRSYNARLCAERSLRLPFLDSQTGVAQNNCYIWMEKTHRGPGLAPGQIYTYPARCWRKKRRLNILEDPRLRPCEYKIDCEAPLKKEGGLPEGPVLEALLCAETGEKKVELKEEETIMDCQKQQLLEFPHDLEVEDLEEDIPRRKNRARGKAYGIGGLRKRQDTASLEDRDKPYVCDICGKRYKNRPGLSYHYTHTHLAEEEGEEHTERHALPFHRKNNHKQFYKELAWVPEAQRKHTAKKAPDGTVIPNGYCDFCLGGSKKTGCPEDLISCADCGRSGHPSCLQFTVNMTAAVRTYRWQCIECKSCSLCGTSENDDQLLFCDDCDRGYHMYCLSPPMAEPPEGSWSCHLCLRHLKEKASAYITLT
UniProt F8VPZ9: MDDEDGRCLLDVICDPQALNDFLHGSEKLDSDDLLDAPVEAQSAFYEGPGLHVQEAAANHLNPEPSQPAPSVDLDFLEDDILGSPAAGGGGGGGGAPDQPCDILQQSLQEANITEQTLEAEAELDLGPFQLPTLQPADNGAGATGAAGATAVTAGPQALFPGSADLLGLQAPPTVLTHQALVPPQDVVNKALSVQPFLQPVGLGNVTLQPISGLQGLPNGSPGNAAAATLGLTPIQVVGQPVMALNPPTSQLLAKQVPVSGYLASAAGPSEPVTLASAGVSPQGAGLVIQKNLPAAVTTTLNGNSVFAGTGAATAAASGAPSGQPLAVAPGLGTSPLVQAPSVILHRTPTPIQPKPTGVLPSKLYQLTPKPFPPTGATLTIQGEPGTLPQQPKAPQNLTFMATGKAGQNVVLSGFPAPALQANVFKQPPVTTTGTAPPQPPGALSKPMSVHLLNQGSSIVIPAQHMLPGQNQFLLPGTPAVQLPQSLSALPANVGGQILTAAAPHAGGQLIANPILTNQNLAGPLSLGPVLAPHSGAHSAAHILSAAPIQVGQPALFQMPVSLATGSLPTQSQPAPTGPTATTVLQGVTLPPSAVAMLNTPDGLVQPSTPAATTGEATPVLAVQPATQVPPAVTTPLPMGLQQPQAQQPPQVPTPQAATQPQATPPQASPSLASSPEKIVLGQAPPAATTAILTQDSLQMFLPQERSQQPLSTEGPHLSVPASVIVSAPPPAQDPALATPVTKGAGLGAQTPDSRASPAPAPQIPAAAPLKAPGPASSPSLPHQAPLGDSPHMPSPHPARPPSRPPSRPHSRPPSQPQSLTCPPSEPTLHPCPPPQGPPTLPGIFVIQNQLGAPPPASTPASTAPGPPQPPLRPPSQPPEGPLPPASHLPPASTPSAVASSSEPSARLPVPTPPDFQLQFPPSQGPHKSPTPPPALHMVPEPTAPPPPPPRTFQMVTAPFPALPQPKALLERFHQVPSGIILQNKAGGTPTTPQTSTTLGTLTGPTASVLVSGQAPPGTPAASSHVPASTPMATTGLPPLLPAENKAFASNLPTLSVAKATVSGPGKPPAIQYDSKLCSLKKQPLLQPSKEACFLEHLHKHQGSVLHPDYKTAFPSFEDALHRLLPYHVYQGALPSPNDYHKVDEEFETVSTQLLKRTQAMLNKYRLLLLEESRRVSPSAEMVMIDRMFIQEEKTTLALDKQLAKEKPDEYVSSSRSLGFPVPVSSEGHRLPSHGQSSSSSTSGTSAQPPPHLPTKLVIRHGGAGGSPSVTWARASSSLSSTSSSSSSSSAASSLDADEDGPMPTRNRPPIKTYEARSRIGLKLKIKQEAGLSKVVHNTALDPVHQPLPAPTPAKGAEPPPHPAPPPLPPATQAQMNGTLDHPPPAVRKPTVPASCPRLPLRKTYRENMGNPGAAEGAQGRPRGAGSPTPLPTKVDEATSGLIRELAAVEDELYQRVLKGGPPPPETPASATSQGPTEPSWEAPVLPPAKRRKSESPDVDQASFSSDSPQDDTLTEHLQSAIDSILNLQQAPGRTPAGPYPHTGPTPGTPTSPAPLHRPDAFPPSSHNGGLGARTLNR
UniProt Q8CHH5: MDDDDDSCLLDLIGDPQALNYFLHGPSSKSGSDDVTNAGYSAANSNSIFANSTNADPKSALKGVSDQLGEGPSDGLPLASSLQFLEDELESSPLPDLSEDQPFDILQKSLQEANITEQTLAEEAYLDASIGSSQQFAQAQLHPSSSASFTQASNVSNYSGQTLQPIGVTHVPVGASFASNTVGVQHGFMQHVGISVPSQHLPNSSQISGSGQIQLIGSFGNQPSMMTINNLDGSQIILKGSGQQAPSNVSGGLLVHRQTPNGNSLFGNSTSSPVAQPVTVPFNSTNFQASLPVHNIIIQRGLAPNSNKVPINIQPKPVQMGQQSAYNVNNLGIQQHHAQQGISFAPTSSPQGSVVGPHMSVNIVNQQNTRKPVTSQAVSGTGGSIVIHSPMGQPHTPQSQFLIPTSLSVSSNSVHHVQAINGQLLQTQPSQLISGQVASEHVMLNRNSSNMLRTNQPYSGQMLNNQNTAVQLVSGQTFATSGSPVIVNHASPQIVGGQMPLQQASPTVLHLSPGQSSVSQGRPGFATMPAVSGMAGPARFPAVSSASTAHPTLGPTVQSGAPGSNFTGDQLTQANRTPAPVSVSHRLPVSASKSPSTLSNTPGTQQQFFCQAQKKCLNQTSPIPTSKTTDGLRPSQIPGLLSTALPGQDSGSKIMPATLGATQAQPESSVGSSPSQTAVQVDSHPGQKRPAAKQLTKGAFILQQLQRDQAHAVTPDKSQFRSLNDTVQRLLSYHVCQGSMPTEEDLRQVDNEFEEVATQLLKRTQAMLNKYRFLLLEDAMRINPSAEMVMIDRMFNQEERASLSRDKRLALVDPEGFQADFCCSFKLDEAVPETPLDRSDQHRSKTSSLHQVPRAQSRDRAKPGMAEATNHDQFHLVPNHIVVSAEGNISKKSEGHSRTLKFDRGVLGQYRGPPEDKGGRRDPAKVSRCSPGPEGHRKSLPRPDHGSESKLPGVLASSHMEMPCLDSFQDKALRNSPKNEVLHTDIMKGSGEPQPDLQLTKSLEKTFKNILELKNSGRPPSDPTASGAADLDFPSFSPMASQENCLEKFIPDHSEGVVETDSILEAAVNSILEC
UniProt O54941: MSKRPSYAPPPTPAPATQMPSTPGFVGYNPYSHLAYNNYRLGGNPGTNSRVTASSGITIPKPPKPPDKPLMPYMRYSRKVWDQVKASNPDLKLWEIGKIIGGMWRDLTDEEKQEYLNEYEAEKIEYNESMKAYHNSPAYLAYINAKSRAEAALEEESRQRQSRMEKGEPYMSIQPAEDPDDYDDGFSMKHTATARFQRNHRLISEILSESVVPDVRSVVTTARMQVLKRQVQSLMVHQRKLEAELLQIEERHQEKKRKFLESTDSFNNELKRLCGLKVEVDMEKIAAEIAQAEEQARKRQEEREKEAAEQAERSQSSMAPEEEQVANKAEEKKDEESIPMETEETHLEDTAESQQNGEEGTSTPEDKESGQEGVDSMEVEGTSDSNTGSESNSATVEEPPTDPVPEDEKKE

B1: Dclk2 (doublecortin like kinase 2) (protein, UniProt Q6PGN3 1-756)
chain: MASTRSIELEHFEERDKRPRPGSRRGAPSSSGGSSISGPKGNGLIPSPAHSAHCSFYRTRTLQALSSEKKAKKARFYRNGDRYFKGLVFAISNDRFRSFDALLIELTRSLSDNVNLPQGVRTIYTIDGSRKVTSLDELLEGESYVCASNEPFRKVDYTKNVNPNWSVNIKGGTTRTLAVASAKSEVKESKDFIKPKLVTVIRSGVKPRKAVRILLNKKTAHSFEQVLTDITEAIKLDSGVVKRLCTLDGKQVTCLQDFFGDDDVFIACGPEKYRYAQDDFVLDHSECRVLKSSYSRASAAKYSGSRSPGFSRRSKSPASVNGTPSSQLSTPKSTKSSSSSPTSPGSFRGLKQISAQGRSSSNVNGGPELDRCLSPEGVNGNRCSESFPLLEKYRIGKVIGDGNFAVVKECVDRYTGKEFALKIIDKAKCCGKEHLIENEVSILRRVKHPNIIMLVEEMETATDLFLVMELVKGGDLFDAITSSTKYTERDGSAMVYNLANALRYLHSLSIVHRDIKPENLLVCEYPDGTKSLKLGDFGLATVVEGPLYTVCGTPTYVAPEIIAETGYGLKVDVWAAGVITYILLCGFPPFRSENNLQEDLFDQILAGKLEFPAPYWDNITDSAKELISQMLQVNVEARCTAGEILSHPWVSDDASQENNMQAEVTGKLKQHFNNALPKQNSTTTGVSVIMNTALDKEGQIFCSKLCQDSSRPSREQTSPVPPSAQEAPPPLESPRPPGPPATSGCDLAGTWRRHRD
B2: Baf45a/Phf10 (protein, UniProt Q9D8M7 1-497)
chain: MTAAGPGAAPSPGRCDSDPASPGAQSPKDDNEDNSNDGTHPCKRRRMGSGDSSRSCETSSQDLSFSYYPAENLIEYKWPPDETGEYYMLQEQVSEYLGVTSFKRKYPDLERRDLSHKEKLYLRELNVITETQCTLGLTALRSDEVIDLMIKEYPAKHAEYSVILQEKERQRITDHYKEYSQMQQQSTQKVEASKVPEYIKKAAKKAAEFNSNLNRERMEERRAYFDLQTHVIQVPQGKYKVLPTDRTKVSSYPVALIPGQFQEYYKRYSPDELRYLPLNTALYEPPLDPELPALDSDGDSDDGEDGGGDEKRKNKGTSDSSSGNVSEGDSPPDSQEDTFHGRQKSKDKMATPRKDGSKRSVLSKSAPGYKPKVIPNALCGICLKGKESNKKGKAESLIHCSQCDNSGHPSCLDMTMELVSMIKTYPWQCMECKTCIICGQPHHEEEMMFCDVCDRGYHTFCVGLGAIPSGRWICDCCQRAPPTPRKVGRRGKNSKEG

The molecules below were run against Brg1/Smarca4 (mouse (endogenous in primary cortical neurons)) (UniProt Q3TKT4) (assay: affinity purification with mass spectrometry).

binding, binds:
B1
B2

Target: Brg1/Smarca4 (mouse (endogenous in primary cortical neurons)) (UniProt Q3TKT4)
Assay: affinity purification with mass spectrometry
Remark: another data set of the same source

binding, binds:
Baf45b/Dpf1 (from UniProt Q9QX66 1-387)
Bicra/Gltscr1 (from UniProt F8VPZ9 1-1578)
Bicra/Gltscrl1 (from UniProt Q8CHH5 1-1074)
Baf57/Smarce1 (from UniProt O54941 1-411)

Results are given in words; binding and its absence hold for the method and conditions named. In cells and extracts the contact can be indirect. These calls come from enrichment with a bait or labelling near it, and not all partners need be listed.
